Experimental data taken from publication PMC8229658 (Viruses, 2021).
No constants are given. Whether binding was seen depends on the method and setting. Binding seen in cells or lysates may run through a third protein. A yes stands for co-enrichment or nearness to the bait. Other partners may have been found.

By UniProt entry, the sequences of proteins in these tests, tags left out.
UniProt P0DMV8: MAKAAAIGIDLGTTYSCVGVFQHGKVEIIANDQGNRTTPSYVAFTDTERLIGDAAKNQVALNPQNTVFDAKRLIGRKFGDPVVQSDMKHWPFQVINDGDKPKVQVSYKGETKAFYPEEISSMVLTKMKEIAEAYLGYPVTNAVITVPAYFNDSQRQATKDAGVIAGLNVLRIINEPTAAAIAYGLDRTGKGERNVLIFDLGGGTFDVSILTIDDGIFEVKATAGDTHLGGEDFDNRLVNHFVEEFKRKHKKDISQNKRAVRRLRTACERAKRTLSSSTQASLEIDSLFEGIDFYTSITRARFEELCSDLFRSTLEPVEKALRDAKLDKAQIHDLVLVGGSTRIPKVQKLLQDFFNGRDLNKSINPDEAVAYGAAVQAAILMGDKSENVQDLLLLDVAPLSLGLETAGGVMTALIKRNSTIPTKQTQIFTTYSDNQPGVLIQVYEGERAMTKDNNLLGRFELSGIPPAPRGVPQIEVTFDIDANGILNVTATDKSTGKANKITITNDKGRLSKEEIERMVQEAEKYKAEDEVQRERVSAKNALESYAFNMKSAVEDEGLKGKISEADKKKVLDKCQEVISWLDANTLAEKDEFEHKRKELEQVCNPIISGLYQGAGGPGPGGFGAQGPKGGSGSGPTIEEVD
UniProt P11142: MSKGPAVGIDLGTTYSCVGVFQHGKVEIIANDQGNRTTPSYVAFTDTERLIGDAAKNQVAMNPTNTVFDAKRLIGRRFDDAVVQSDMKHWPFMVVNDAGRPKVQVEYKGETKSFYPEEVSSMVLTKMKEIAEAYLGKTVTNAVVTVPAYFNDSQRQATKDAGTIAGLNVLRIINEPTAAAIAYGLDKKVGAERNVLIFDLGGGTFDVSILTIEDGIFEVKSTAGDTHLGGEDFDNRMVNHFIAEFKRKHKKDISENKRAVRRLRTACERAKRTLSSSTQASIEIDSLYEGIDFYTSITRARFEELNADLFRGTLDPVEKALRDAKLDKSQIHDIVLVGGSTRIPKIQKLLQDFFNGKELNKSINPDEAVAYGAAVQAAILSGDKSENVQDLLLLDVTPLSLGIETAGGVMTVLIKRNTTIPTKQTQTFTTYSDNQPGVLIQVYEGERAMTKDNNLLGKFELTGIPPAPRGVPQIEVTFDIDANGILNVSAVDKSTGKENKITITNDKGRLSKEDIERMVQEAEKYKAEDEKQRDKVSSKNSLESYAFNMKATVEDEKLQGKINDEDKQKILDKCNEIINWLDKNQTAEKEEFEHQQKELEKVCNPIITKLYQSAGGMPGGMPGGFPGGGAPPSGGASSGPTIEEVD
UniProt Q9Y265: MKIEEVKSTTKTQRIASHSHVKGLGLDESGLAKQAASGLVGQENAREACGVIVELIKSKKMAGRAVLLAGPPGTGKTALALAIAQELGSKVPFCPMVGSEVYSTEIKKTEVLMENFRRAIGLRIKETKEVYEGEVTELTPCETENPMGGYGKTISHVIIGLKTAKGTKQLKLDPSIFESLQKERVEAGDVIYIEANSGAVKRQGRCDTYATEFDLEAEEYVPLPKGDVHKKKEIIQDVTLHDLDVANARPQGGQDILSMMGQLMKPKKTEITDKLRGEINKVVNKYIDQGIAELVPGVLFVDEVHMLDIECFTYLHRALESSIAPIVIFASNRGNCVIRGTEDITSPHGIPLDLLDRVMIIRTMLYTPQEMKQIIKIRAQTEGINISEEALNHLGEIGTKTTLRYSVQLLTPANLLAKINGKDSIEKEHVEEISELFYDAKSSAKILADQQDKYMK
UniProt Q99729: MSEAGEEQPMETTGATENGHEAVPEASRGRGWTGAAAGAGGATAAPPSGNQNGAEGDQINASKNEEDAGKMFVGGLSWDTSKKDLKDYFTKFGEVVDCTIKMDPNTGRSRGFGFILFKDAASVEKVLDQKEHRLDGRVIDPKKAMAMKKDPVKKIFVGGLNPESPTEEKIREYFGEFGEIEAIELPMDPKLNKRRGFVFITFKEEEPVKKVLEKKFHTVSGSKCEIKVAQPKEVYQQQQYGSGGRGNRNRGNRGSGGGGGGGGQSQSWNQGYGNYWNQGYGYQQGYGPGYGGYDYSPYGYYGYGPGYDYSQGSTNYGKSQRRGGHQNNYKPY
UniProt O60506: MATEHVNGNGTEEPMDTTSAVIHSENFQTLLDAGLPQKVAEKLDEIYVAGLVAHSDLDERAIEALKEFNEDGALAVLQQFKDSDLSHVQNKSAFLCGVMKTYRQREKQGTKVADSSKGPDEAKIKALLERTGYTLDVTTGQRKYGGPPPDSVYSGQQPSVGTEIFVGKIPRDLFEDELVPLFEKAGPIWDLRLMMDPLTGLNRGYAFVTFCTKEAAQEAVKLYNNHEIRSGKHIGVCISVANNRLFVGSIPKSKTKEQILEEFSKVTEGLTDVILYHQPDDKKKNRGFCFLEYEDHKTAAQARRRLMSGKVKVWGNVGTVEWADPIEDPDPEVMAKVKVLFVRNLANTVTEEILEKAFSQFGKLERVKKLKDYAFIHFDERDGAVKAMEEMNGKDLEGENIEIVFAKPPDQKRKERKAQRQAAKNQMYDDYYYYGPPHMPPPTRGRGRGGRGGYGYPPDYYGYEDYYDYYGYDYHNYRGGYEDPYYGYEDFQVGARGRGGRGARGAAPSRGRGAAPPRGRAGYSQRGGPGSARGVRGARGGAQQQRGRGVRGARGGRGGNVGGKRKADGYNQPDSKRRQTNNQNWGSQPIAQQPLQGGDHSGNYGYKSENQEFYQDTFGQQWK

B1: hnRNP D-like (protein, UniProt O14979 1-420)
chain: MEVPPRLSHVPPPLFPSAPATLASRSLSHWRPRPPRQLAPLLPSLAPSSARQGARRAQRHVTAQQPSRLAGGAAIKGGRRRRPDLFRRHFKSSSIQRSAAAAAATRTARQHPPADSSVTMEDMNEYSNIEEFAEGSKINASKNQQDDGKMFIGGLSWDTSKKDLTEYLSRFGEVVDCTIKTDPVTGRSRGFGFVLFKDAASVDKVLELKEHKLDGKLIDPKRAKALKGKEPPKKVFVGGLSPDTSEEQIKEYFGAFGEIENIELPMDTKTNERRGFCFITYTDEEPVKKLLESRYHQIGSGKCEIKVAQPKEVYRQQQQQQKGGRGAAAGGRGGTRGRGRGQGQNWNQGFNNYYDQGYGNYNSAYGGDQNYSGYGGYDYTGYNYGNYGYGQGYADYSGQQSTYGKASRGGGNHQNNYQPY
B2: hnRNP L (protein, UniProt P14866 1-589)
chain: MSRRLLPRAEKRRRRLEQRQQPDEQRRRSGAMVKMAAAGGGGGGGRYYGGGSEGGRAPKRLKTDNAGDQHGGGGGGGGGAGAAGGGGGGENYDDPHKTPASPVVHIRGLIDGVVEADLVEALQEFGPISYVVVMPKKRQALVEFEDVLGACNAVNYAADNQIYIAGHPAFVNYSTSQKISRPGDSDDSRSVNSVLLFTILNPIYSITTDVLYTICNPCGPVQRIVIFRKNGVQAMVEFDSVQSAQRAKASLNGADIYSGCCTLKIEYAKPTRLNVFKNDQDTWDYTNPNLSGQGDPGSNPNKRQRQPPLLGDHPAEYGGPHGGYHSHYHDEGYGPPPPHYEGRRMGPPVGGHRRGPSRYGPQYGHPPPPPPPPEYGPHADSPVLMVYGLDQSKMNCDRVFNVFCLYGNVEKVKFMKSKPGAAMVEMADGYAVDRAITHLNNNFMFGQKLNVCVSKQPAIMPGQSYGLEDGSCSYKDFSESRNNRFSTPEQAAKNRIQHPSNVLHFFNAPLEVTEENFFEICDELGVKRPSSVKVFSGKSERSSSGLLEWESKSDALETLGFLNHYQMKNPNGPYPYTLKLCFSTAQHAS

Molecular target: Flag-tagged NS1 protein of influenza A/PR/8/34 (PR8) virus (influenza A virus A/PR/8/34 (PR8)) (UniProt P03496)
Assay: affinity purification with mass spectrometry

Molecule | binding
Heat shock 70 kDa protein 1A/1B (from UniProt P0DMV8 1-641) | binds
Heat shock cognate 71 kDa protein (from UniProt P11142 1-646) | binds
RuvB-like protein 1 (RuvBL1), endogenous (from UniProt Q9Y265 1-456) | binds
hnRNP A/B (from UniProt Q99729 1-332) | binds
hnRNP K (from UniProt P61978 1-463) | binds
hnRNP Q (from UniProt O60506 1-623) | binds
B1 | binds
B2 | binds
